Source: doi:10.1101/194993
Where two headings read alike, the source gives them in different places. No constants are given. Whether binding was seen depends on the method and setting. A result given as binding can be weak or reduced; the word gives no strength. Sequences can lack the tags named with a protein.

B1: Cdt1^92-546 8A (non-phosphorylatable mutant) (domain or fragment, UniProt Q9H211 92-546)
chain: PSPGQKIKKAAPAAGQPPHLTSAQDQDTISELASCLQRARELGARVRALKAAAQDAGESCTPEAEGRPEEPCGEKAPAYQRFHALAQPGLPGLVLPYKYQVLAEMFRSMDTIVGMLHNRSETPTFAKVQRGVQDMMRRRFEECNVGQIKTVYPASYRFRQERSVPTFKDGTRRADYQLAIEPLLEQEADGAAPQLAASRLLQRRQIFSQKLVEHVKEHHKAFLASLSPAMVVPEDQLARWHPRFNVDEVPDIEPAALPQPPATEKLATAQEVLARARNLISPRMEKALSQLALRSAAPSSPGSPRPALPATPPATPPAASPSALKGVSQDLLERIRAKEAQKQLAQMTRCPEQEQRLQRLERLPELARVLRSVFVSERKPALSMEVACARMVGSCCTIMSPGEMEKHLLLLSELLPDWLSLHRIRTDTYVKLDKAADLAHITARLAHQTRAEEGL
B2: Cdt1^92-546 (human Cdt1 devoid of the N-terminal 92 aa, N-terminal GFP fusion) (domain or fragment, UniProt Q9H211 92-546)
chain: PSPGQKIKKSTPAAGQPPHLTSAQDQDTISELASCLQRARELGARVRALKASAQDAGESCTPEAEGRPEEPCGEKAPAYQRFHALAQPGLPGLVLPYKYQVLAEMFRSMDTIVGMLHNRSETPTFAKVQRGVQDMMRRRFEECNVGQIKTVYPASYRFRQERSVPTFKDGTRRSDYQLTIEPLLEQEADGAAPQLTASRLLQRRQIFSQKLVEHVKEHHKAFLASLSPAMVVPEDQLTRWHPRFNVDEVPDIEPAALPQPPATEKLTTAQEVLARARNLISPRMEKALSQLALRSAAPSSPGSPRPALPATPPATPPAASPSALKGVSQDLLERIRAKEAQKQLAQMTRCPEQEQRLQRLERLPELARVLRSVFVSERKPALSMEVACARMVGSCCTIMSPGEMEKHLLLLSELLPDWLSLHRIRTDTYVKLDKAADLAHITARLAHQTRAEEGL
B3: Cdt1^92-232 (N-terminal GFP fusion) (domain or fragment, UniProt Q9H211 92-232)
chain: PSPGQKIKKSTPAAGQPPHLTSAQDQDTISELASCLQRARELGARVRALKASAQDAGESCTPEAEGRPEEPCGEKAPAYQRFHALAQPGLPGLVLPYKYQVLAEMFRSMDTIVGMLHNRSETPTFAKVQRGVQDMMRRRFE
B4: Cdt1^92-410 (N-terminal GFP fusion) (domain or fragment, UniProt Q9H211 92-410)
chain: PSPGQKIKKSTPAAGQPPHLTSAQDQDTISELASCLQRARELGARVRALKASAQDAGESCTPEAEGRPEEPCGEKAPAYQRFHALAQPGLPGLVLPYKYQVLAEMFRSMDTIVGMLHNRSETPTFAKVQRGVQDMMRRRFEECNVGQIKTVYPASYRFRQERSVPTFKDGTRRSDYQLTIEPLLEQEADGAAPQLTASRLLQRRQIFSQKLVEHVKEHHKAFLASLSPAMVVPEDQLTRWHPRFNVDEVPDIEPAALPQPPATEKLTTAQEVLARARNLISPRMEKALSQLALRSAAPSSPGSPRPALPATPPATPPAA

Key:
Experiment in all cases: co-sedimentation
[1] = biological target: native tubulin purified from porcine brain, polymerised to microtubules (MTs) (porcine)
[2] = biological target: native tubulin purified from porcine brain, polymerised to microtubules (MTs) (porcine); remark: listed apart in the source
[3] = biological target: subtilisin-treated microtubules (ST-MT), MTs lacking E-hooks (porcine)

Binder	binding [1]	binding [2]	binding [3]
B1	binds	–	–
B2	binds	binds	binds
B3	no binding	–	–
B4	no binding	–	–
